# Assay results taken from PubChem BioAssay AID2685 (National Center for Advancing Translational Sciences (NCATS), 2010).
# This is one part of the list. The main result of the screen is listed elsewhere. These columns were measured beside it and carry no call. Most of these compounds were active or inconclusive in the main read-out, so they are no random draw. Potencies come from curve fits of mixed quality, noted in brackets.
# Test: qHTS Assay for Lipid Storage Modulators in Drosophila S3 Cells;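 for cell number change: cells counted by Cell Tracker Red CMTPX staining in the red channel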
# Details: BODIPY lipid droplet fluorescence, 18-24 h; for cell number change: measured here: cell count max response, cells fed with added oleic acid
# Method in brief: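 Drosophila S3 cells loaded with oleic acid (400 uM, as added) and compounds at several concentrations; lipid droplets imaged by 488-nm laser-scanning cytometry, 500–530 nm intensity and object ratio to cell channel. Percent activity normalized to 20 uM Triacsin C.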
# [1] = measured here: lipid fluorescence (Fed channel) AC50, cells fed with added oleic acid
# [2] = measured here: cell number channel AC50, cells fed with added oleic acid
SMILES,cell number change,AC50 [1],AC50 [2]
COc1ccc(CCCc2nnc(SCC(=O)N/N=C\c3ccc(O)c(OC)c3)o2)cc1C,-22.2%,"1.84 µM [falling, partial curve, poor fit]",
CC(=O)c1ccc(NC(=O)Cn2cnc(S(=O)(=O)N3CCCC3)c2)cc1,-19.5%,"29.1 µM [rising, single point]",
CC(C)[C@@H]1CC[C@@H](C)c2c(-c3ccccc3)n[nH]c21,-31.5%,"0.00461 µM [falling, full curve, poor fit]","29.1 µM [falling, single point]"
O=C(Cc1ccc(Cl)cc1)Nc1cccc(-c2nnc(-c3ccco3)o2)c1,21.8%,,
COc1ccccc1C(=O)Nc1ccc(S(=O)(=O)N2CCCC2)cc1,-22.1%,"16.4 µM [rising, single point]",
COc1ccccc1N1CCN(C(=O)c2cc3cc(Cl)ccc3[nH]2)CC1,,"29.1 µM [rising, single point]",
COCc1cc(C)n(CC(=O)Nc2cc(C)cc(C)c2)c(=O)c1C#N,-2.05%,"0.82 µM [falling, full curve, poor fit]",
Fc1cc(F)c(C2SCCN2C(=S)Nc2cccc(C(F)(F)F)c2)c(F)c1 (configuration not stated),-31.1%,"14.6 µM [falling, partial curve, poor fit]","9.2 µM [falling, partial curve, poor fit]"
Cc1cccc(C)c1OCc1nnc(SCC(=O)NCCc2ccccc2)o1,-21.3%,"32.6 µM [falling, single point]",
Cc1c2c(n3c(nc4ccccc43)c1C#N)N(CCCN(C)C)CC2,-6.7%,,
Cc1ccsc1C(=O)N/N=C/C=C/c1ccccc1[N+](=O)[O-],,,"0.092 µM [rising, full curve, poor fit]"
O=C(Nc1cc([N+](=O)[O-])ccc1N1CCCC1)c1ccccc1,8.92%,"0.517 µM [rising, single point]",
COc1ccc(CN2CCn3ncc(C(=O)Nc4cc(C)cc(C)c4)c3C2=O)cc1,-32.8%,"11.6 µM [falling, partial curve]","8.2 µM [falling, partial curve, poor fit]"
COC(=O)c1ccc2c(=O)n(Cc3ccc(C(=O)NCCCN4CCC(C)CC4)cc3)c(=S)[nH]c2c1,-15.6%,"2.59 µM [falling, partial curve, poor fit]",
CCC1C/C(=C/c2ccco2)C(=O)/C(=C/c2ccco2)C1 (configuration not stated),-9.39%,"18.4 µM [falling, partial curve, poor fit]",
CCOC(=O)N1CCN(C(=O)C2CCN(Cc3ccc(O)c(OCC)c3)CC2)CC1,-12.4%,,
Cc1cc(C)nc(SCC(=O)Nc2ncc(Cc3cccc(Cl)c3Cl)s2)n1,,,"0.164 µM [rising, full curve, poor fit]"
Cc1cccc(NC(=O)C2CCN(C(=O)c3ccc(F)cc3)CC2)n1,,,"2.31 µM [rising, single point]"
CCn1cc(C(=O)NCCc2ccc(C)cc2)c(=O)c2cc(S(=O)(=O)N(C)C)ccc21,53.2%,,"1.16 µM [rising, full curve]"

SMILES,cell number change,AC50 [1],AC50 [2]
c1ccc(CNc2ncnc3scc(-c4cccs4)c23)nc1,-14.9%,"29.1 µM [falling, single point]",
O=C1CC(NS(=O)(=O)c2cccs2)CN1c1cccc(F)c1 (configuration not stated),20%,"6.51 µM [falling, single point]",
CN1C(=O)CC(=O)N(C)c2cc(S(=O)(=O)N(C)Cc3ccccc3)ccc21,-73.6%,,"29.1 µM [falling, single point]"
O=C1CN(CC(=O)Nc2ccc(Cl)cc2)CCN1,,"1.84 µM [falling, partial curve]","1.46 µM [falling, full curve]"
COc1ccc(NC(=O)C2CCN(S(=O)(=O)c3c(C)noc3/C=C/N(C)C)CC2)cc1,-2.12%,,
O=C(c1ccc(F)cc1)N1CCN2C(=O)c3ccccc3C12c1ccc(Cl)cc1 (configuration not stated),22.4%,,
CCCC(=O)Nc1cccc(S(=O)(=O)N(C)c2ccccc2)c1,13.8%,"20.6 µM [rising, single point]",
CC(=O)C1=C(c2ccc(Br)cc2)C(=O)c2ccccc2C1=O,-31.7%,"14.6 µM [falling, partial curve]","13 µM [falling, partial curve]"
COc1cccc(NC(=O)CN(C)C(=O)c2cccc(S(=O)(=O)Nc3ccc(C)cc3)c2)c1,18.6%,"16.4 µM [falling, single point]",
COc1cc(CN2CCC(C(=O)N3CCN(c4ccccc4F)CC3)CC2)cc(OC)c1OC,-73.1%,"5.8 µM [rising, full curve]","29.1 µM [falling, single point]"
O=C(CSc1nnc(-c2ccc(O)cc2)n1Cc1ccco1)N1CCc2ccccc2C1,-4.45%,"6.51 µM [rising, single point]",
COc1ccc(C(=O)Nc2c(N)nc(SCC(=O)Nc3ccc(NC(C)=O)cc3)[nH]c2=O)cc1OC,-11%,"16.4 µM [rising, partial curve]",
CCN(c1ccccc1)S(=O)(=O)c1ccc(OC)c(NC(=O)c2cc(Cl)ccn2)c1,2.01%,,
CCCc1cc2c(=O)c(-c3nc4ccccc4s3)c(COCC(=O)O)oc2cc1O,14.6%,"0.231 µM [rising, full curve, poor fit]",
N#Cc1c(Nc2ccc(F)cc2)sc(C(=O)c2ccc(F)cc2)c1N,-38.1%,"29.1 µM [falling, single point]","29.1 µM [falling, single point]"
CN(Cc1ccccc1)S(=O)(=O)c1ccc(NS(=O)(=O)Cc2ccccc2)cc1,76.3%,"1.46 µM [rising, partial curve, poor fit]","14.6 µM [rising, partial curve]"
CCN(Cc1cc(=O)n2cc(Cl)c(C)c(Cl)c2n1)Cc1nc2ccccc2c(=O)[nH]1,,,"4.11 µM [rising, partial curve, poor fit]"
Cc1ccc(OCC(=O)NC2CC(C)(C)NC(C)(C)C2)c(C)c1,16.3%,,
CCOC(=O)n1cc(C(=O)c2ccccc2O)cn1,11.3%,"11.6 µM [falling, single point]",

SMILES,cell number change,AC50 [1],AC50 [2]
CCOC(=O)C1CCCN(Cc2sccc2C)C1 (configuration not stated),-25.2%,"18.4 µM [falling, partial curve]","0.184 µM [falling, full curve, poor fit]"
COc1cccc(C(=O)NC(C)C(c2cccs2)N2CCN(C)CC2)c1 (configuration not stated),31.4%,,"0.517 µM [rising, full curve, poor fit]"
CC(C)OP(=O)(c1ccc(N(C)C)cc1)C(O)c1ccncc1 (configuration not stated),43.2%,"23.1 µM [rising, partial curve]",
COc1cccc(NC(=O)CCC2CCN(C(=O)C3CC=CCC3)CC2)c1 (configuration not stated),-16.4%,"29.1 µM [falling, partial curve]",
CCOc1cc(C)c(C(C)C)cc1S(=O)(=O)NCc1ccccn1,71.3%,"29.1 µM [rising, single point]","29.1 µM [rising, single point]"
CC(=O)c1sc(-c2ccc(Cl)cc2)cc1N,32.6%,"25.9 µM [rising, single point]","29.1 µM [rising, single point]"
O=C1CC(N2CCN(c3nc4ccccc4s3)CC2)C(=O)N1c1cccc(F)c1 (configuration not stated),27.3%,,"0.517 µM [rising, full curve, poor fit]"
CC(=O)c1ccc(C(=O)N2CCC(n3nccc3NC(=O)C3CC3)CC2)cc1,3.47%,,
COc1ccccc1NC(=O)C(=O)NCCC1CCCCN1S(=O)(=O)c1ccc(F)cc1 (configuration not stated),-25.5%,"29.1 µM [falling, single point]",
COC(=O)c1ccccc1SCC(=O)Nc1ccc(N2CCOCC2)cc1,8.71%,"5.8 µM [rising, single point]",
COCCN(C(=O)CSc1n[nH]c(-c2ccccc2)n1)c1c(N)n(CC(C)C)c(=O)[nH]c1=O,22.9%,,
Cc1cccc(NC(=O)C(=O)NNC(=O)c2ccc(C(C)(C)C)cc2)c1,113%,"35.5 µM [falling, partial curve]","20.6 µM [rising, partial curve]"
Cc1ccc(S(=O)(=O)N2CCN(c3ccccc3)CC2)cc1,-11.7%,"1.03 µM [falling, full curve, poor fit]",
CC(Sc1nnc(C2CC2)n1C)C(=O)Nc1ccc(N2CCOCC2)cc1 (configuration not stated),,,"0.146 µM [falling, full curve, poor fit]"
Cn1c(=O)c(C=Nc2ccccc2)c(O)c2ccccc21,-64.2%,"23.1 µM [falling, partial curve]","23.1 µM [falling, single point]"
CCC(C(=O)NCCc1c[nH]c2ccc(C)cc12)c1ccccc1 (configuration not stated),88%,,"29.1 µM [rising, single point]"
Cc1cc(C)cc(NC(=O)c2cccc(N3C(=O)C4C5C=CC(C5)C4C3=O)c2)c1 (configuration not stated),-52.2%,"9.2 µM [falling, partial curve]","9.2 µM [falling, partial curve]"
Cn1cccc1CC(=O)N/N=C/c1cccc([N+](=O)[O-])c1,71.3%,,"8.2 µM [rising, partial curve]"
CCN(CC)S(=O)(=O)c1ccc2c(c1)nc(SCc1nc3ccsc3c(=O)[nH]1)n2CC,11.5%,,"3.26 µM [rising, partial curve]"

# Given tab-delimited: part of the list above
SMILES	cell number change	AC50 [1]	AC50 [2]
CC(Sc1nnc(C2CC2)n1C)C(=O)Nc1ccc(N2CCOCC2)cc1 (configuration not stated)			0.146 µM [falling, full curve, poor fit]
Cn1c(=O)c(C=Nc2ccccc2)c(O)c2ccccc21	-64.2%	23.1 µM [falling, partial curve]	23.1 µM [falling, single point]
CCC(C(=O)NCCc1c[nH]c2ccc(C)cc12)c1ccccc1 (configuration not stated)	88%		29.1 µM [rising, single point]
